Laboratory results: PubChem BioAssay AID602196 (INSERM, 2012)
This is a random part of about 23,000 reagents. In the full data, 455 (2%) are marked active. 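Active includes both protection and sensitisation; some change values fall well beyond the stated -50 to +50 range.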 Further read-outs or replicates are left out here. Not given: the amount of reagent.

- Assay: 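Genes whose knock-down alters cisplatin killing of lung cancer cells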
- Cell system: human A549 lung cancer cells
- Reagent: siRNA pair against human genes
- Time to read-out: 48 h transfection before cisplatin; time from cisplatin to read-out not stated
- Conditions: cisplatin at a dose killing half of control-siRNA cells; exact dose and duration not given
- Read-out: 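Shift in cisplatin death relative to control siRNA, from -50 (all cells die) to +50 (no cells die); siRNAs harmful on their own scored 0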
- Direction: two-siRNA summed score (-2 to +2): higher = both siRNAs protect from cisplatin killing; -2 means both sensitise; mean protection from cisplatin (shift in death): higher = protection from cisplatin killing
- Hit rule: 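Each siRNA scores 0 if harmful alone by LDH or WST-1, otherwise +1 if it reduces and -1 if it increases cisplatin killing; a gene is active when both siRNAs agree (sum +2 or -2)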
- Calls: active = both siRNAs shift cisplatin killing the same way; inactive = no consistent shift, or siRNA harmful alone

Target gene | two-siRNA summed score (-2 to +2) | mean protection from cisplatin (shift in death) (%) | Outcome
DEF6 | 0 | -7 | inactive
SOX5 | -1 | -2.8 | inactive
CALCOCO2 | 1 | 5.6 | inactive
LOC391655 | 0 | 8.7 | inactive
EGR3 | 2 | 23.6 | active
LPCAT4 | 0 | 22.7 | inactive
ZNF10 | 2 | 12.3 | active

3 entries already listed, ordered by “two-siRNA summed score (-2 to +2)”, lowest first.
Target gene | two-siRNA summed score (-2 to +2) | mean protection from cisplatin (shift in death) (%) | Outcome
SOX5 | -1 | -2.8 | inactive
LOC391655 | 0 | 8.7 | inactive
CALCOCO2 | 1 | 5.6 | inactive

The list goes on:
Target gene | two-siRNA summed score (-2 to +2) | mean protection from cisplatin (shift in death) (%) | Outcome
LOC390975 | 0 | -2.7 | inactive
MAGEC1 | 0 | -6.5 | inactive
PGGT1B | -1 | -12.4 | inactive
LOC442580 | 0 | 15.2 | inactive
TIGD4 | 1 | 1.9 | inactive
OR11H1 | 0 | 14.1 | inactive
FRG1 | 1 | 9.7 | inactive
MAP10 | 0 | 2.7 | inactive
DIXDC1 | 0 | 4.4 | inactive
MS4A5 | 1 | 19.2 | inactive
PRR13P5 | 1 | 4.8 | inactive
AXL | 2 | 20.6 | active
LOC391059 | 0 | 7 | inactive
TMEM183A | 0 | -12.1 | inactive
LOC391429 | 1 | 13 | inactive
LOC439952 | 0 | 10.2 | inactive
